Results taken from patent US20070249808A1 (published 2007).

Experiments:
Experiment in all cases: cell-based or functional assay
[1] = target: Vβ6.7 T-cell receptor chains on human peripheral blood T cells (human)
[2] = target: Vβ21.3 T-cell receptor chains on human peripheral blood T cells (human)
[3] = target: Vβ17 T-cell receptor chains on human peripheral blood T cells (human)

B1: HERV-W ENV protein, full length (protein G), expressed in MHC class II+ transfectants (other)
chain: APPPCRCMTSSSPYQEFLWRMQRPGNIDAPSYRSLSKGTPTFTAHTHMPRNCYHSATLCMHANTHYWTGKMINPSCPGGLGVTVCWTYFTQTGMSDGGGVQDQAREKHVKEVISQLTRVHGTSSPYKGLDLSKLHETLRTHTRLVSLFNTTLTGLHEVSAQNPTNCWICLPLNFRPYVSIPVPEQWNNFSTEINTTSVLVGPLVSNLEITHTSNLTCVKFSNTTYTTNSQCIRWVTPPTQIVCLPSGIFFVCGTSAYRCLNGSSESMCFLSFLVPPMTIYTEQDLYSYVISKPRNKRVPILPFVIGAGVLGALGTGIGGITTSTQFYYKLSQELNGDMERVADSLVTLQDQLNSLAAVVLQNRRALDLLTAERGGTCLFLGEECCYYVNQSGIVTEKVKEIRDRIQRRAEELRNTGPWGLLSQWMPWILPFLGPLAAIILLLLFGPCIFNLLVNFVSSRIEAVKLQMEPKMQSKTKIYRRPLDRPASPRSDVNDIKGTPPEEISAAQPLLRPNSAGSS
fold increase of Vβ+ T cells after two weeks of stimulation by transfectants, donor 1 [1]: 1.7 fold | fold increase of Vβ+ T cells after two weeks of stimulation by transfectants, donor 2 [1]: 1.43 fold | fold increase of Vβ+ T cells after two weeks of stimulation by transfectants, donor 2 [2]: 2.18 fold | fold increase of Vβ+ T cells after two weeks of stimulation by transfectants, donor 1 [3]: 3 fold | fold increase of Vβ+ T cells after two weeks of stimulation by transfectants, donor 2 [3]: 2.3 fold
